The target in the assay is Dormancy associated translation inhibitor (DATIN), protein encoded by Rv0079 of Mycobacterium tuberculosis, His-tagged recombinant (Mycobacterium tuberculosis) (UniProt P9WMA9). Briefly: SEC; both purified. In general terms: SEC sorts molecules by how far they enter the pores of the column.

No constants are given. Whether binding was seen depends on the method and setting. Where a sequence is shown, tags or fusion partners need not be part of it.

B1: Dormancy associated translation inhibitor (DATIN), protein encoded by Rv0079 of Mycobacterium tuberculosis, His-tagged recombinant (protein, UniProt P9WMA9 1-273)
chain: MEPKRSRLVVCAPEPSHAREFPDVAVFSGGRANASQAERLARAVGRVLADRGVTGGARVRLTMANCADGPTLVQINLQVGDTPLRAQAATAGIDDLRPALIRLDRQIVRASAQWCPRPWPDRPRRRLTTPAEALVTRRKPVVLRRATPLQAIAAMDAMDYDVHLFTDAETGEDAVVYRAGPSGLRLARQHHVFPPGWSRCRAPAGPPVPLIVNSRPTPVLTEAAAVDRAREHGLPFLFFTDQATGRGQLLYSRYDGNLGLITPTGDGVADGLA
As to B1, the binding result was “no binding”.

For the origin of these results see publication PMC3374827.
